Measured values from the supplement of paper PMC10849652.
This is one part of the list.

Amino acid sequences for entries named in this document (tags omitted). A change or cut given only in a name is not applied to a line headed by its entry.
UniProt Q96MH6: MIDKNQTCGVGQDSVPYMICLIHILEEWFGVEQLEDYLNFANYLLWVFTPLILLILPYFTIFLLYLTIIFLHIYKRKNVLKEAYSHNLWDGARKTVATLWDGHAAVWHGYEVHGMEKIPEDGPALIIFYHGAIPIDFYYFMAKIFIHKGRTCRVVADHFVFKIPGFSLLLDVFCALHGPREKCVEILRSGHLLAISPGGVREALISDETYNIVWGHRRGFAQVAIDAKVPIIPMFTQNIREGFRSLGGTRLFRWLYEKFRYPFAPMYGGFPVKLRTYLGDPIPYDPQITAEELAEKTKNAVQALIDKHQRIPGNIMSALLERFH
UniProt Q9UM00: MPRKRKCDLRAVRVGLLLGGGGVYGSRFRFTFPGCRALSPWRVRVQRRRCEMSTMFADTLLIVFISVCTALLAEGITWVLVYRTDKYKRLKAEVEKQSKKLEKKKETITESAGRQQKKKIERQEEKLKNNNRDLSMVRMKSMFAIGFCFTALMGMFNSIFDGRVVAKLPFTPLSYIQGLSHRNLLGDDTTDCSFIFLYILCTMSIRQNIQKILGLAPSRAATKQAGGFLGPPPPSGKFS
UniProt Q15363: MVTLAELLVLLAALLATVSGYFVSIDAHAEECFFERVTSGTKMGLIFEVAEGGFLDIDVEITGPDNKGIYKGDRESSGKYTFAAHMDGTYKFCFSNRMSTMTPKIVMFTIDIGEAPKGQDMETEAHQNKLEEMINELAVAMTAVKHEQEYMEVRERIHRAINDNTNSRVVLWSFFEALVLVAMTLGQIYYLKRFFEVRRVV
UniProt Q9H1E5: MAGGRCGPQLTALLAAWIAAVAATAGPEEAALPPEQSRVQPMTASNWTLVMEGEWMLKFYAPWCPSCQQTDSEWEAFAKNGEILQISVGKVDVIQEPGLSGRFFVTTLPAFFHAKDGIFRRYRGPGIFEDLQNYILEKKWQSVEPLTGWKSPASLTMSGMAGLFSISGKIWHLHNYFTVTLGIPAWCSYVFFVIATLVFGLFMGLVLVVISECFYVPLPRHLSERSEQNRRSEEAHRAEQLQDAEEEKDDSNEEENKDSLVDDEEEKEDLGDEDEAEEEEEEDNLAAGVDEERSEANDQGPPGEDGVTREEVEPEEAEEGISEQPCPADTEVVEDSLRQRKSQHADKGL
UniProt Q9H0V1: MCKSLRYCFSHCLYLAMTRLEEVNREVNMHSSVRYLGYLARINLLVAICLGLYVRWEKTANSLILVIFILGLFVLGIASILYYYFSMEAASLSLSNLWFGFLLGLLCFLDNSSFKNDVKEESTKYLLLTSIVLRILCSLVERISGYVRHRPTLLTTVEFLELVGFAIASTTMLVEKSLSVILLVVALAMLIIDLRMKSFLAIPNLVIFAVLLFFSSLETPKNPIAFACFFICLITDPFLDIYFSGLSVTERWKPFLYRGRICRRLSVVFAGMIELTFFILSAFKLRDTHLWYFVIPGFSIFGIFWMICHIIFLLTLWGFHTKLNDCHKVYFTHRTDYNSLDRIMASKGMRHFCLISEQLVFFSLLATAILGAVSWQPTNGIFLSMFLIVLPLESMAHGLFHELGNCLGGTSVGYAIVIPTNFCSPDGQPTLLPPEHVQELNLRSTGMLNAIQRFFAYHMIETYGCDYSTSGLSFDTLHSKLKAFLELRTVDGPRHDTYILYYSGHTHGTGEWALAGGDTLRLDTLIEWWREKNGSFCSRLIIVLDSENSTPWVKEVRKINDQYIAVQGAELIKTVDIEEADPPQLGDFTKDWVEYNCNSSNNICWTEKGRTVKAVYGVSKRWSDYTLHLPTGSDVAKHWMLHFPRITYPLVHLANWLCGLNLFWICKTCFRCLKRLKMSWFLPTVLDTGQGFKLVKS
UniProt P42166: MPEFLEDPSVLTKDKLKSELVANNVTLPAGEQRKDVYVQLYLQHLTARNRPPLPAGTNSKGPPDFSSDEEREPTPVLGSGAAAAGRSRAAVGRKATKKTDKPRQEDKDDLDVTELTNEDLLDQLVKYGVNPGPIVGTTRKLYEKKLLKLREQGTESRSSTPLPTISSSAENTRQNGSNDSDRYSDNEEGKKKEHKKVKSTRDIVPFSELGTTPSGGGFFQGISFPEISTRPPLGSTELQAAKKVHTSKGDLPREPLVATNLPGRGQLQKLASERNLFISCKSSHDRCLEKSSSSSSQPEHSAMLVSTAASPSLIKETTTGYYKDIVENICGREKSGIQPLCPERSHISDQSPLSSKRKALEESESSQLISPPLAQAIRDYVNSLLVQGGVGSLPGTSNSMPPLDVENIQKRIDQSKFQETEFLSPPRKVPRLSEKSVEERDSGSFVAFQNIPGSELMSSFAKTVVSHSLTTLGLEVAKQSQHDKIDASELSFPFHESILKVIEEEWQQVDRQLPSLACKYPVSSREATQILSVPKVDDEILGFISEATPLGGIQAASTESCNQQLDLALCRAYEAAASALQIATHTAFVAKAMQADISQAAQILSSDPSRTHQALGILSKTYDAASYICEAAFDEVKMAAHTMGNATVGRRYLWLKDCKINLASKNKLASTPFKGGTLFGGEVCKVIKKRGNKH
UniProt Q4ZIN3: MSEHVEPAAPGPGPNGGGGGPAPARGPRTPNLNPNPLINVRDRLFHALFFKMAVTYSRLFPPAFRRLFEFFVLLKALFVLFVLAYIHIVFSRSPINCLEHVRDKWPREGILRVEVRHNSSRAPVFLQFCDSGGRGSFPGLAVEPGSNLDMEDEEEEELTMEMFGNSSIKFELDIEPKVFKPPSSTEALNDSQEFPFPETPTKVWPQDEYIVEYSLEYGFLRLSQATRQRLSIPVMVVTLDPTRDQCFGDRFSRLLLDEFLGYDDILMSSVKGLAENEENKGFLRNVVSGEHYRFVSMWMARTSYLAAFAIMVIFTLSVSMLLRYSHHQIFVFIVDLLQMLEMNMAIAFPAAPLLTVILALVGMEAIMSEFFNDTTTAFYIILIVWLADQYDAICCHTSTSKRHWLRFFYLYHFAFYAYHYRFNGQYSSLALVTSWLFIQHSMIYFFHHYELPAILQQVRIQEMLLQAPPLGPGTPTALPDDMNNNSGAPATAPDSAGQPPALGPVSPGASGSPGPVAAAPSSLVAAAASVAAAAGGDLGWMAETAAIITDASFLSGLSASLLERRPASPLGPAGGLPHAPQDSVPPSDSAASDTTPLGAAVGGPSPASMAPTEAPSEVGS
UniProt P63313: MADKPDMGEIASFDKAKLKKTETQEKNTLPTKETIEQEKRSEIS
UniProt Q9NWD8: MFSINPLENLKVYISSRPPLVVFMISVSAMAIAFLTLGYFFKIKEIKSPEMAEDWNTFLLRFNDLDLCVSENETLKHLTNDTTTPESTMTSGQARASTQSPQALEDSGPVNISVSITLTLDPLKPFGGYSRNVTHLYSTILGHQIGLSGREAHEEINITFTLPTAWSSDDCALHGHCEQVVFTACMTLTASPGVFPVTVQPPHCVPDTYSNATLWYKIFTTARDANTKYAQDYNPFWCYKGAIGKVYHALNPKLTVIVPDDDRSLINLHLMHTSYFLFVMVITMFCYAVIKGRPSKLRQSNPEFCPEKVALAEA
UniProt Q9Y3Q3: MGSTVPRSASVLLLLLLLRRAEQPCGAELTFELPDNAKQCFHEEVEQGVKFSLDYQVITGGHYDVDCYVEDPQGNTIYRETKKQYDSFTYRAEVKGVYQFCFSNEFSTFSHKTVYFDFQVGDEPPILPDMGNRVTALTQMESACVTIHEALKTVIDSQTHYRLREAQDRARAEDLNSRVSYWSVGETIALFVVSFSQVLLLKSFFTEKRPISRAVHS
UniProt Q96SK2: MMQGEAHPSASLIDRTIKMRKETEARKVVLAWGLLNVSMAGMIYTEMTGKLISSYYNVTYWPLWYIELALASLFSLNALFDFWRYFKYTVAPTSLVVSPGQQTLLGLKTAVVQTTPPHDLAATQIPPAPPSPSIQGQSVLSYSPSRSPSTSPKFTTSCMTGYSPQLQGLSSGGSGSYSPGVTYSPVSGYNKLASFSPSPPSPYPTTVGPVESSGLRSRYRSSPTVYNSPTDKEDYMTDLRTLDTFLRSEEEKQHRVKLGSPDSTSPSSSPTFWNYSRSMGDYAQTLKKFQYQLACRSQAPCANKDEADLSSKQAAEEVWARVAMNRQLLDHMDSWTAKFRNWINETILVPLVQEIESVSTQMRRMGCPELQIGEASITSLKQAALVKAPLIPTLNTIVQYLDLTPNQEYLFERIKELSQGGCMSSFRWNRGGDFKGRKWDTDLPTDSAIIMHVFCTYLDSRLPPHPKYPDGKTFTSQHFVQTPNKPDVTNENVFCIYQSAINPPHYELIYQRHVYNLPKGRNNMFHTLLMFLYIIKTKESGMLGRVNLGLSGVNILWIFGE
UniProt Q96A57: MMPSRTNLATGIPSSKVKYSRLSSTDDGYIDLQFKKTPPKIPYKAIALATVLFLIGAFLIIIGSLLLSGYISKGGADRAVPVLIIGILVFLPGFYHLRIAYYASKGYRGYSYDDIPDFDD
UniProt Q13445: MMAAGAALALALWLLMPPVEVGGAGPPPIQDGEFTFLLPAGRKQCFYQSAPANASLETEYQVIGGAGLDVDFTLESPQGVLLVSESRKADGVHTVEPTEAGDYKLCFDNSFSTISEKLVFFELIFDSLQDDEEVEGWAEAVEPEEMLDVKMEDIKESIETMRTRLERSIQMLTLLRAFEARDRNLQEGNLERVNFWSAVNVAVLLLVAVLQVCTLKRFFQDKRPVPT
UniProt P42167: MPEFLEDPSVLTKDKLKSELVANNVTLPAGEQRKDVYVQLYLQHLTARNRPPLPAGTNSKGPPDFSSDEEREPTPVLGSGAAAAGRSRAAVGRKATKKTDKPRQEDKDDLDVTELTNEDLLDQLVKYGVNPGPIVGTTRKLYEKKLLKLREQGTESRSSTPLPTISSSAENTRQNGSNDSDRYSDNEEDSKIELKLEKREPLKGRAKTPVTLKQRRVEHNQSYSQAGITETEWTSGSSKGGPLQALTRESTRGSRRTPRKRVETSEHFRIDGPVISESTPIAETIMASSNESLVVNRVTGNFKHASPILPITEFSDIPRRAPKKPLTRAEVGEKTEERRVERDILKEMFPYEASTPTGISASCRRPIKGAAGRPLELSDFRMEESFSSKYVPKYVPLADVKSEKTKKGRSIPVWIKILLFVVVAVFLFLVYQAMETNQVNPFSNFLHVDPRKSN
UniProt Q0P6H9: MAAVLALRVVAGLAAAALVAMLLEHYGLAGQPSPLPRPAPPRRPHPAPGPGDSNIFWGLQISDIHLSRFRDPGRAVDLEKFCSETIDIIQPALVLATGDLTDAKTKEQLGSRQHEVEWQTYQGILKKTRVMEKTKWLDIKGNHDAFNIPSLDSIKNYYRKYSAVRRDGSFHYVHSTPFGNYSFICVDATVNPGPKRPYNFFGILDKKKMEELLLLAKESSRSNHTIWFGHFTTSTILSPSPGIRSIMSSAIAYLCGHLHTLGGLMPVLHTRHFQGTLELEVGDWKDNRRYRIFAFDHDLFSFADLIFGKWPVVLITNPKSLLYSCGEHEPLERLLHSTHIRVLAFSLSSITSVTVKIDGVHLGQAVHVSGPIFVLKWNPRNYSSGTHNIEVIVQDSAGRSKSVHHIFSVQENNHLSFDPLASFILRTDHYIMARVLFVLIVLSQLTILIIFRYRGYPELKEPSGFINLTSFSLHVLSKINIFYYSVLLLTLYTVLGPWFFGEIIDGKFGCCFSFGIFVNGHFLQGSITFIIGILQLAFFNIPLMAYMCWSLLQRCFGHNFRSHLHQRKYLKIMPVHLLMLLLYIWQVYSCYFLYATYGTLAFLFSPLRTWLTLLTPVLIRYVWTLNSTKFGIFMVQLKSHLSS
UniProt P17152: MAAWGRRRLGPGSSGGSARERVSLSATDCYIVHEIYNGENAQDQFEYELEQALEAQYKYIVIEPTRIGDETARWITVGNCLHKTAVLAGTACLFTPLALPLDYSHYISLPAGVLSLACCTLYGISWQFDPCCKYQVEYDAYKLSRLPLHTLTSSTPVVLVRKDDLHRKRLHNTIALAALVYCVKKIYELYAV

Compound: CON(C)C(=O)N1N=C(c2cc(F)ccc2F)S[C@@]1(CCCN)c1ccccc1 [filanesib]
Test: log2 fold change, soluble protein after heating vs DMSO (PISA); higher = thermal stabilisation; K562 cells, 10 uM, 30 min; active = over 0.2 and 3.5 SD of the protein, either way, in both replicates (recomputed)
Outline: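 K562 cells at 2×10^6 cells/mL were treated with 10 μM compound for 30 min. Aliquots were heated for 3 min across 48°C-58°C, pooled, and extracted in PBS with 0.5% NP-40 at 4°C; soluble protein was the supernatant after 21,000xg for 90 min. Soluble protein was quantified by TMTpro 16plex LC-MS/MS with channel sums equalised, and reported as log2 fold change in thermal stability against DMSO controls, with values from duplicates.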

log2 fold change, inactive:
TMEM68 (UniProt Q96MH6) -0.059
TMCO1 (UniProt Q9UM00) -0.148
TMED2 (UniProt Q15363) -0.077
TMX4 (UniProt Q9H1E5) 0.021
TMEM168 (UniProt Q9H0V1) -0.009
TMPO (UniProt P42166) -0.077
TMEM259 (UniProt Q4ZIN3) -0.002
TMSB10 (UniProt P63313) 0.091
TMEM248 (UniProt Q9NWD8) 0.023
TMED3 (UniProt Q9Y3Q3) -0.128
TMEM209 (UniProt Q96SK2) 0.002
TMEM230 isoform 2 (UniProt Q96A57) -0.036
TMED1 (UniProt Q13445) -0.076
TMPO (UniProt P42167) -0.052
TMEM62 (UniProt Q0P6H9) -0.016
TMEM11 (UniProt P17152) -0.053

For reference, part of the list above:
log2 fold change, inactive:
TMSB10 (UniProt P63313) 0.091
TMEM248 (UniProt Q9NWD8) 0.023
